Measurements reported in article PMC8783668.

Experiments:
[1] = target: T1, Strep II-CPK32 (Arabidopsis) (UniProt Q6NLQ6); experiment: pull-down; Strep II-CPK32 as bait, FCA-His fusion proteins as prey; blots with anti-Strep II and anti-His antibodies; both purified
T1 sequence: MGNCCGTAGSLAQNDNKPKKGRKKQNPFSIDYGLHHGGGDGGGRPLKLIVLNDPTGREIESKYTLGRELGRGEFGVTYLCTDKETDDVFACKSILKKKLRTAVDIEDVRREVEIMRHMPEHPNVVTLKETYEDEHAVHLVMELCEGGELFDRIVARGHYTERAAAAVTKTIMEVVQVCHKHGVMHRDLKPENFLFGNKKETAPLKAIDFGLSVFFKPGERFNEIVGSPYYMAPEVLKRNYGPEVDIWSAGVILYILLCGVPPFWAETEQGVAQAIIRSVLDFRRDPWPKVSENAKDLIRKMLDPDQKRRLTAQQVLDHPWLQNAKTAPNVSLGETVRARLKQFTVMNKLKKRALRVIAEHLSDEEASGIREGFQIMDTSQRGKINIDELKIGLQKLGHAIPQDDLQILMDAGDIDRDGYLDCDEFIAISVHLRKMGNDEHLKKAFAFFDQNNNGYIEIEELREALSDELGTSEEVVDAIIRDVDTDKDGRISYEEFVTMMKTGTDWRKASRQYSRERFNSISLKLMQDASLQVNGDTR

[2] = target: T2, calcium-dependent protein kinase 32 (CPK32), yeast two-hybrid fusion (Arabidopsis) (UniProt Q6NLQ6); experiment: two-hybrid; Yeast Two-Hybrid in yeast; CPK32/pDEST32 as negative control
T2 sequence: T1 sequence

Substance	binding [1]	binding [2]
FCA-C-His (C-terminal region of FCA containing the WW domain) (Arabidopsis) (domain or fragment)	binds	–
FVE, yeast two-hybrid fusion (Arabidopsis)	–	no binding
N-terminal region of FCA containing two RNA recognition motif (RRM) domains, His fusion (Arabidopsis) (domain or fragment)	no binding	–

These are yes or no findings as the source states them, for the method shown. For part of these data: Binding can be weak; no strength is given. For part of these data: Where a sequence is shown, tags or fusion partners need not be part of it.
